This assay has as its target T1, very long chain acyl-CoA dehydrogenase (VLCAD), mouse liver (mouse), P50544.
T1 chain: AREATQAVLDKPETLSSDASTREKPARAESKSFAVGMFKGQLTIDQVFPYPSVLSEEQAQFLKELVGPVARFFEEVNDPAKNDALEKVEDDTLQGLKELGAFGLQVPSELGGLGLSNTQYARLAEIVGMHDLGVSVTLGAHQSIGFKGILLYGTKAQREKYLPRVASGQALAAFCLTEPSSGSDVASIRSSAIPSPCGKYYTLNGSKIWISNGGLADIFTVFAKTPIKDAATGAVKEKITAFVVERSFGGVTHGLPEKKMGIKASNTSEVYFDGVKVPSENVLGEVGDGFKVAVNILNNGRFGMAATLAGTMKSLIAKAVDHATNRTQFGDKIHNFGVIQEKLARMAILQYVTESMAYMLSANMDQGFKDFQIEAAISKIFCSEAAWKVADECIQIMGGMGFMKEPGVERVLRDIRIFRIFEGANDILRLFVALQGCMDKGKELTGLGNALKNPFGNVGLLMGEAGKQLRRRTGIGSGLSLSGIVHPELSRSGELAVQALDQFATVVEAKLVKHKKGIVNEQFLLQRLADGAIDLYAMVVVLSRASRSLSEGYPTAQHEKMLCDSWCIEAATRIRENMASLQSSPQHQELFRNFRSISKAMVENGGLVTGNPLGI
The experiment in a line: native gel electrophoresis with Western blot, liver mitochondria fractions. The conditions noted are these: remark: other sources report otherwise. In general terms: A western blot detects proteins with antibodies after separation by electrophoresis.

No constants are given. Whether binding was seen depends on the method and setting. Some binding calls cover weakened binding; strength is not graded here.

B1: very long chain acyl-CoA dehydrogenase (VLCAD), mouse liver, P50544 42-656 (enzyme, UniProt P50544 42-656, looked up)
chain: AREATQAVLDKPETLSSDASTREKPARAESKSFAVGMFKGQLTIDQVFPYPSVLSEEQAQFLKELVGPVARFFEEVNDPAKNDALEKVEDDTLQGLKELGAFGLQVPSELGGLGLSNTQYARLAEIVGMHDLGVSVTLGAHQSIGFKGILLYGTKAQREKYLPRVASGQALAAFCLTEPSSGSDVASIRSSAIPSPCGKYYTLNGSKIWISNGGLADIFTVFAKTPIKDAATGAVKEKITAFVVERSFGGVTHGLPEKKMGIKASNTSEVYFDGVKVPSENVLGEVGDGFKVAVNILNNGRFGMAATLAGTMKSLIAKAVDHATNRTQFGDKIHNFGVIQEKLARMAILQYVTESMAYMLSANMDQGFKDFQIEAAISKIFCSEAAWKVADECIQIMGGMGFMKEPGVERVLRDIRIFRIFEGANDILRLFVALQGCMDKGKELTGLGNALKNPFGNVGLLMGEAGKQLRRRTGIGSGLSLSGIVHPELSRSGELAVQALDQFATVVEAKLVKHKKGIVNEQFLLQRLADGAIDLYAMVVVLSRASRSLSEGYPTAQHEKMLCDSWCIEAATRIRENMASLQSSPQHQELFRNFRSISKAMVENGGLVTGNPLGI
As to B1, the binding result is given as “binds”.

Values taken from patent US20180297931A1.
